No constants are given. Whether binding was seen depends on the method and setting. Some binding calls cover weakened binding; strength is not graded here.

In patent US20230050038A1 one finds binding data, which are given here for one molecule.

This assay has as its target T1, VEGFR2 (recombinant, surface plasmon resonance), P35968.
T1 chain: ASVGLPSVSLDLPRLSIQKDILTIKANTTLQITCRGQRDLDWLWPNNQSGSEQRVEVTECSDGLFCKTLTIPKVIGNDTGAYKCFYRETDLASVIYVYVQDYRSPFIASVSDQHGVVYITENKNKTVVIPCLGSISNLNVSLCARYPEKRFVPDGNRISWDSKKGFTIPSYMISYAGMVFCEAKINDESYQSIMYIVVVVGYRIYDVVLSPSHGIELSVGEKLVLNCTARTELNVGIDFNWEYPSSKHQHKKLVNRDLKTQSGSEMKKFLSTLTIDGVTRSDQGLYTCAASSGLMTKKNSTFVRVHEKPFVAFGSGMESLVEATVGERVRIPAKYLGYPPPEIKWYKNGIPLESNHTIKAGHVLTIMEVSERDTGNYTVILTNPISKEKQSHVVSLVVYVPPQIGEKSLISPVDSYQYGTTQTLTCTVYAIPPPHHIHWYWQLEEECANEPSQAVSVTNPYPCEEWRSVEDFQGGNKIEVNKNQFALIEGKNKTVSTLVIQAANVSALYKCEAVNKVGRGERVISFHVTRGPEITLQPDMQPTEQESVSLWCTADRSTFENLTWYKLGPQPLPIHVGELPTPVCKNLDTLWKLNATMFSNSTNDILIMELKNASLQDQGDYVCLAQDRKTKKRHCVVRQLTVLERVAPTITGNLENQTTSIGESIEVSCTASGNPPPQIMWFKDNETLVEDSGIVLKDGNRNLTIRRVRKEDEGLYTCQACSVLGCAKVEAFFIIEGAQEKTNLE
Nature of the assay: surface plasmon resonance. The settings on record: remark: other sources report otherwise.

B1: PDGF-CC (recombinant), Q9NRA1 235-345 (ligand, UniProt Q9NRA1 235-345, looked up)
chain: VVDLNLLTEEVRLYSCTPRNFSVSIREELKRTDTIFWPGCLLVKRCGGNCACCLHNCNECQCVPSKVTKKYHEVLQLRPKTGVRGLHKSLTDVALEHHEECDCVCRGSTGG
B1: the binding entry is “binds”.
